Measured values as given in paper PMC7005700.
No constants are given. Whether binding was seen depends on the method and setting. In cells and extracts the contact can be indirect. A yes stands for co-enrichment or nearness to the bait. Other partners may have been found.

Chains of the proteins cited; added tags and fusions are not shown. Lines headed by an entry give the natural chain unless they say otherwise; changes in a name come on top. A line that says so, or that is headed by a name, gives the form on record, which may keep a tag or linker.
UniProt P22415: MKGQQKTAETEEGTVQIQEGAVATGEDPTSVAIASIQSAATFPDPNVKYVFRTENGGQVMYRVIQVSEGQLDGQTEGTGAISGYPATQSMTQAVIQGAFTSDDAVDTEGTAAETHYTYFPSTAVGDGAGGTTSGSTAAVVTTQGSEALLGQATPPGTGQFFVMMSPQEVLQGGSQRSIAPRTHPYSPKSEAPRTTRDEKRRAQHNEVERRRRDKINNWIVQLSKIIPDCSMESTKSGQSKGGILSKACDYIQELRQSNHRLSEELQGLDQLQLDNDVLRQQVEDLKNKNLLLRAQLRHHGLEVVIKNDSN
Jmjd1c, endogenous in mouse liver (Q69ZK6, form named): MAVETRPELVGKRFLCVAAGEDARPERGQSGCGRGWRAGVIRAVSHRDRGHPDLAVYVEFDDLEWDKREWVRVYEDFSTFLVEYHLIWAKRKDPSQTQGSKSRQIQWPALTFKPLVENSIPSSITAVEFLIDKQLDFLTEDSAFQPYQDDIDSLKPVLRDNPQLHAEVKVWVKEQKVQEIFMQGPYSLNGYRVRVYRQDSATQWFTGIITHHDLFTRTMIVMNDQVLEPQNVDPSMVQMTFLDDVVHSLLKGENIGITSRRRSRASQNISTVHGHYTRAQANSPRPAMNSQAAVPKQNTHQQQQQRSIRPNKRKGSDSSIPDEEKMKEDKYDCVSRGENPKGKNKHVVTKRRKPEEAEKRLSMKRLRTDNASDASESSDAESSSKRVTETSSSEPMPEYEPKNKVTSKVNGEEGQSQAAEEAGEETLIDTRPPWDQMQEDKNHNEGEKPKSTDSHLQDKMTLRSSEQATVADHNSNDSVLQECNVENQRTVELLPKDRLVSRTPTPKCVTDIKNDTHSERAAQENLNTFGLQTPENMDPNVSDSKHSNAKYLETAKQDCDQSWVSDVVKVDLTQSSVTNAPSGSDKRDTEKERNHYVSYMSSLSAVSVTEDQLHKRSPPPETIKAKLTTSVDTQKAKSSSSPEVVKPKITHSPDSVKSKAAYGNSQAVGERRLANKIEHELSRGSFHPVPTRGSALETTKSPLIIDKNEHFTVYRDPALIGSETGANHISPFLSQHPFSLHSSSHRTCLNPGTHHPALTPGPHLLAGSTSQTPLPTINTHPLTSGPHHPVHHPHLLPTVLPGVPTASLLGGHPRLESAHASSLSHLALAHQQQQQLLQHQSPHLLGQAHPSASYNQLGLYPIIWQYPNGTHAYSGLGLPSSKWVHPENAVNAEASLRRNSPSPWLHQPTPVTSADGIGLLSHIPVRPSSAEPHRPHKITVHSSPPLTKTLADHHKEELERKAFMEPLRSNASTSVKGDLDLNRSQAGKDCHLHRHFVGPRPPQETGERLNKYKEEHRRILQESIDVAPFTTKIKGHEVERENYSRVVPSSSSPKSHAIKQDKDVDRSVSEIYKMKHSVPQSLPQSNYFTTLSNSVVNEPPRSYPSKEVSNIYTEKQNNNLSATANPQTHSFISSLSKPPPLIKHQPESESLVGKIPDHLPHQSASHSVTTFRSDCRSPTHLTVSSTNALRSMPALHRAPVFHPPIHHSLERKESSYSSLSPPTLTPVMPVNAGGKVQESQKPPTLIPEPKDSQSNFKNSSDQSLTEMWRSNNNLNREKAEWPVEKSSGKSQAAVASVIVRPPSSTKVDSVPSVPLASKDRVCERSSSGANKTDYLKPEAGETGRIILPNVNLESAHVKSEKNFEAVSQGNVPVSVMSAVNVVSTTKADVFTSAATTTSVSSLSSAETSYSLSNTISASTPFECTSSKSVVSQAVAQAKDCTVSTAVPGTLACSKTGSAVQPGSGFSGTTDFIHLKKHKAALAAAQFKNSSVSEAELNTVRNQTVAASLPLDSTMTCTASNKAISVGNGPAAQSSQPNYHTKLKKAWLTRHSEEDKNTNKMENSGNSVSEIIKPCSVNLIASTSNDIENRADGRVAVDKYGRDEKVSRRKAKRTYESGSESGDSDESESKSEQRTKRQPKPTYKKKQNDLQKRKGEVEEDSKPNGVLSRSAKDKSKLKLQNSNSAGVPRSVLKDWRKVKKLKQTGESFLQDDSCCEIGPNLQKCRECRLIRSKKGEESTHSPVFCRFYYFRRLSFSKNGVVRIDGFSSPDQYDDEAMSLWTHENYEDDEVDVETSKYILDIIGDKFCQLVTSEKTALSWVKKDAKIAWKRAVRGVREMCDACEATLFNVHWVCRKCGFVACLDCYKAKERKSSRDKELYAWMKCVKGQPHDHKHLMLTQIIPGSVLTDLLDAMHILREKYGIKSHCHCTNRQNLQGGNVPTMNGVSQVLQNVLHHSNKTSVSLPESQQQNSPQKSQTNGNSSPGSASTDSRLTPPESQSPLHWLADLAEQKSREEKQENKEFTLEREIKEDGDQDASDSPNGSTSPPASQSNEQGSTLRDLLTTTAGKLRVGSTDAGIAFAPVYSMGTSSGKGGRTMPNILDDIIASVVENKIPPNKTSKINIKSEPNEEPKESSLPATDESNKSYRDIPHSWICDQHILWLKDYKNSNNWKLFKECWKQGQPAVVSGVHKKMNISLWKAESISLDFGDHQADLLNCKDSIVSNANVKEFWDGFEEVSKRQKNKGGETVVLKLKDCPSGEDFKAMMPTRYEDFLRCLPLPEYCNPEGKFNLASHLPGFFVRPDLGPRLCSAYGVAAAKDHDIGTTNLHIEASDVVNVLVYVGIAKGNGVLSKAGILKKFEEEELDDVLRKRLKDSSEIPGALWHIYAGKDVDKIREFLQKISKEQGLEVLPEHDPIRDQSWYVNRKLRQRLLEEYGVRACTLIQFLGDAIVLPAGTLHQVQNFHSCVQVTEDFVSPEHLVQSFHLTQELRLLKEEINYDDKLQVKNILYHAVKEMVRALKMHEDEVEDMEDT

Biological target: TAP-tagged USF-1 (UniProt P22415)
Experiment: affinity purification with mass spectrometry; tandem affinity purification with TAP-tagged USF-1 as bait, incubated with liver nuclear extracts, then mass spectrometry

- binding: binds
Substance: Jmjd1c, endogenous in mouse liver (from UniProt Q69ZK6 1-2531)
